Substitutions are numbered along the chain they refer to. Numbers in names are those of the source. Like-named read-outs stand apart in the source and are kept apart here. These are yes or no findings as the source states them, for the method shown. Binding calls can cover weak binding; strength is not graded here.

By UniProt entry, the sequences of proteins in these tests, tags left out. Where a name states a change or a piece, a line headed by the entry shows the natural chain unless it says otherwise.
UniProt Q17TI5: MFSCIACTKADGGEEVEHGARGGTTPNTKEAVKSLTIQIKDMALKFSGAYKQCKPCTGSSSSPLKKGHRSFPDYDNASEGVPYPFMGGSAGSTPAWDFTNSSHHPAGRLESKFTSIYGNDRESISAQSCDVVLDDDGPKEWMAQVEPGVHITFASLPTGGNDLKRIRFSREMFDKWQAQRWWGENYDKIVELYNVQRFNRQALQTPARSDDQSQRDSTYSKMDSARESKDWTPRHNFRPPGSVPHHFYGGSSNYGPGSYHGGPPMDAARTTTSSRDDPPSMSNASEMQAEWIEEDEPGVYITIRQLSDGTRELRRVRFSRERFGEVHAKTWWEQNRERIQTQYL

What all share (experiment): two-hybrid; Golden Yeast strain; pGBKT7 or pGADT7 vectors as baits or preys; tested on -Trp-Leu and -Trp-Leu-Ade-His medium; 3-AT added for BRX-related bait proteins
For assay [1], the target named is BRX C-terminus (C-terminal 'BRX-domains' of BRX) (Arabidopsis thaliana) (UniProt Q17TI5).
For assay [2], the target named is PROTEIN KINASE ASSOCIATED WITH BRX (PAX) (Arabidopsis thaliana).
The target of assay [3] is BRX C-terminus (C-terminal 'BRX-domains' of BRX) (Arabidopsis thaliana) (UniProt Q17TI5). This is another data set of the same source.
For assay [4], the target named is PAX N-terminus (Arabidopsis thaliana) (UniProt F4IV25).

On to “kinase domain of PAX (from UniProt F4IV25) (domain or fragment)”, for which the binding result in assay [1] is given as “binds”.

B1: PBS1-LIKE 36 (PBL36) (enzyme, UniProt F4J0D2 1-476)
chain: MATKLESFKVVEKLGVEKGEKGKMMSKKKNVKKDGDESESGFWFRFKFIFSCISSRSKVDSSMNATAVIAEPKKVIEKLEGHPAPTKDTGCAESGSSTPLMSGELKYSSKLRIFMFNDLKLATRNFRPESLLGEGGFGCVFKGWIEENGTAPVKPGTGLTVAVKTLNPDGLQGHKEWLAEINFLGNLVHPSLVKLVGYCMEEDQRLLVYEFMPRGSLENHLFRRTLPLPWSVRMKIALGAAKGLAFLHEEAEKPVIYRDFKTSNILLDGEYNAKLSDFGLAKDAPDEKKSHVSTRVMGTYGYAAPEYVMTGHLTTKSDVYSFGVVLLEILTGRRSVDKSRPNGEQNLVEWVRPHLLDKKRFYRLLDPRLEGHYSIKGAQKATQVAAQCLNRDSKARPKMSEVVEALKPLPNLKDFASSSSSFQTMQPVAKNGVRTQGGGFVSRNGPPMRSLSSLNLPQASPYRYARQSPKPKGKEP
As for B1, the binding entry is given as “no binding” in assay [2] and “binds” in assay [3].

B2: D6 PROTEIN KINASE (D6PK) (enzyme, UniProt Q9FG74 1-498)
chain: MMASKTPEGSLTNSSQSMSINTLADQVSSSLSFADPSSDGKTGNSKINEQGESGKSSTCRPSTSSDISDESTCSSFSSSINKPHKANDVRWEAIQAVRTKHGGLGLNHFRLLKRLGCGDIGTVHLAELNGTRCYFAMKVMDKTALASRKKLLRAQTEREILQCLDHPFLPTLYSHFETEKFSCLVMEFCPGGDLHTLRQRQPGKRFTEQAAKFYVAEVLLAMEYLHMLGIIYRDLKPENVLVRDDGHVMLSDFDLSLRCTVSLSIVRSANVGSEGLSKNSVSCSQQPACIQQPSCISMAPTSCFGPRFFSSKSKKDKKPKTENGNHQVTPLPELVAEPTGARSMSFVGTHEYLAPEIIKGEGHGSAVDWWTFGIFLYELLFGKTPFKGSGNRATLFNVVGQPLRFPESPVVSFAARDLIRSLLVKEPQHRLAYKRGATEIKQHPFFEGVNWALVRCASPPEIPKPVDLEALNPTPTVPAAASSSVRSDQSNYLEFDFF
For the molecule B2, in assay [3], the binding entry was “binds”.

B3: BARELY ANY MERISTEM 3 (BAM3) kinase domain (domain or fragment, UniProt O65440 710-992)
chain: VKENHVIGKGGRGIVYKGVMPNGEEVAVKKLLTITKGSSHDNGLAAEIQTLGRIRHRNIVRLLAFCSNKDVNLLVYEYMPNGSLGEVLHGKAGVFLKWETRLQIALEAAKGLCYLHHDCSPLIIHRDVKSNNILLGPEFEAHVADFGLAKFMMQDNGASECMSSIAGSYGYIAPEYAYTLRIDEKSDVYSFGVVLLELITGRKPVDNFGEEGIDIVQWSKIQTNCNRQGVVKIIDQRLSNIPLAEAMELFFVAMLCVQEHSVERPTMREVVQMISQAKQPNTF
In the case of B3, in assay [2], the binding result is given as “no binding”.

B4: PHO…OSITOL-4-PHOSPHATE-5-KINASE 2 (PIP5K2) (enzyme, UniProt Q8L796 1-754)
chain: MMREPLVSEEEEEEATEVLLVEKTKLCKRRGDEEKTEERRDDLLLLALTPMVRSKSQGTTRRVTPTPPPVDVEKPLPNGDLYMGTFSGGFPNGSGKYLWKDGCMYEGEWKRGKASGKGKFSWPSGATYEGEFKSGRMEGSGTFVGVDGDTYRGSWVADRKQGHGQKRYANGDYYEGTWRRNLQDGRGRYVWMNGNQYTGEWRNGVICGKGVLAWPNGNRYEGQWENGVPKGSGVFTWADGSSWIGSWNESSNLMRNFFDGIEKNELIVATRKRSSVDSGAGSLTGEKIFPRICIWESDGEAGDITCDIVDNVEASVIYRDRISIDKDGFRQFRKNPCCFSGEAKKPGETISKGHKKYDLMLNLQHGIRYSVGKHASVVRDLKQSDFDPSEKFWTRFPPEGSKTTPPHLSVDFRWKDYCPLVFRRLRELFTVDPADYMLAICGNDALRELSSPGKSGSFFYLTQDDRFMIKTVKKSEVKVLLRMLPSYYKHVCQYENTLVTRFYGVHCIKPVGGQKTRFIVMGNLFCSEYRIQRRFDLKGSSHGRYTSKPEGEIDETTTLKDLDLNFAFRLQRNWYQELMTQIKRDCEFLEAERIMDYSLLVGVHFRDDNTGDKMGLSPFVLRSGKIESYQSEKFMRGCRFLEAELQDMDRILAGRKPLIRLGANMPARAERMARRSDYDQYSSGGTNYQSHGEVYEVVLYFGIIDILQDYDISKKIEHAYKSLQADPASISAVDPKLYSRRFRDFISRIFIEDG
For the molecule B4, the binding result in assay [4] and in assay [3] was “binds” in each case.

B5: PBS1-LIKE 34 (PBL34) (enzyme, UniProt Q9LFP7 1-493)
chain: MGLDAVKAKGNWKSEKPKETENKNHKKKNGDDNKSRNEEEEEGEASGCWVKFRFMIGCIPSKSDLDASSSSIYGSNCTVTTMESKSANEKSNDQPVGQVSSTTTTSNAESSSSTPVISEELNISSHLRKFTFNDLKLSTRNFRPESLLGEGGFGCVFKGWIEENGTAPVKPGTGLTVAVKTLNPDGLQGHKEWLAEINFLGNLLHPNLVKLVGYCIEDDQRLLVYEFMPRGSLENHLFRRSLPLPWSIRMKIALGAAKGLSFLHEEALKPVIYRDFKTSNILLDADYNAKLSDFGLAKDAPDEGKTHVSTRVMGTYGYAAPEYVMTGHLTSKSDVYSFGVVLLEMLTGRRSMDKNRPNGEHNLVEWARPHLLDKRRFYRLLDPRLEGHFSIKGAQKVTQLAAQCLSRDPKIRPKMSDVVEALKPLPHLKDMASSSYYFQTMQAERLKNGSGRSQGFGSRNGQHQPVFRTLSSPHGSSPYRHQIPSPKPKGATT
For the molecule B5, the binding entry is recorded as “no binding” in assay [2] and “binds” in assay [3].

B6: PHO…OSITOL-4-PHOSPHATE-5-KINASE 1 (PIP5K1) (enzyme, UniProt Q56YP2 1-752)
chain: MSDSEEDEEEEEASEVILSSVVQKKKKKNLRFGEEVERRDGLVLLAQSTPMVRSRSQGTTRRVTPTPLVDVEKPLPNGDLYIGSFSGGFPHGSGKYLWKDGCMYEGDWKRGKASGKGKFSWPSGATYEGEFKSGRMEGFGTFTGADGDTYRGTWVADRKHGHGQKRYANGDFYEGTWRRNLQDGRGRYVWRNGNQYTGEWRSGVISGKGLLVWPNGNRYEGLWENGIPKGNGVFTWSDGSSCVGAWNESNIMRSFFNGVEKNDLIVGNRKRSSVDSGAGSLGGEKVFPRICIWESDGEAGDITCDIIDNVEASMIYRDRISVDRDGFRQFKKNPCWFNGEAKKPGQTISKGHKKYDLMLNLQLGIRYSVGKHASIVRDLKQTDFDPKEKFWTRFPPEGTKTTPPHQSVDFRWKDYCPLVFRRLRELFQVDPAKYMLAICGNDALRELSSPGKSGSFFYLTQDDRFMIKTVKKSEVKVLLRMLPSYYKHVCQYENSLVTRFYGVHCVKPVGGQKTRFIVMGNLFCSEYRIQRRFDLKGSSHGRSTAKPEGEIDETTTLKDLDLNFSFRLQRNWYQELMKQIKRDCEFLEAERIMDYSLLVGVHFRDDNTGEKMGLSPFVLRSGRIDSYQNEKFMRGCRFLEAELQDMDRILAGRKPSIRLGANMPAKAERMARRSDFDQYSSGGASYPSHGEMYEVVLYFGVIDILQDYDITKKIEHAYKSLQADPASISAVDPKLYSKRFRDFISRIFIEEG
Take B6: the binding result in assay [4] and in assay [3] was “binds” throughout.

B7: kinase-dead PIP5K1 variant (K536A; 'iPIP5K1') (enzyme, UniProt Q56YP2 1-752)
chain: B6 chain with K536A
For B7, the binding entry in assay [2] was “binds”.

B8: kinase domain of CORYNE (CRN) (domain or fragment, UniProt Q9LYU7 118-401)
chain: SNGIQLLGSDLNGKYYKMVLDNGLVVAVKRLGSLEGVGSPESSSSKSVKRRLQKELELLAGLRHRNLMSLRAYVRESDEFSLVYDYMPNGSLEDVMNKVRTKEVELGWEIRLRVAVGIVKGLQYLHFSCETQILHYNLKPTNVMLDSEFEPRLADCGLAKIMPSSHTAVSCYSAPESSQSNRYTDKSDIFSFGMILGVLLTGRDPTHPFCEESASGGSLGQWLKHLQQSGEAREALDKTILGEEVEEDEMLMALRITIICLSDFPADRPSSDELVHMLTQLHSF
Regarding B8, the binding entry in assay [2] is “no binding”.

B9: PBS1-LIKE 35 (PBL35) (enzyme, UniProt Q9SRH7 1-490)
chain: MGFDSVKVMENWQSKTSNENEKKKKKRRRKKNNNVRNSEHYEEEANGCWVKFRYIVCCASSTSDVETSLTLSTSTVGSQSAIVQSNDQPVGPVSSTTTTSNAESSLSTPIISEELNIYSHLKKFSFIDLKLATRNFRPESLLGEGGFGCVFKGWVEENGTAPVKPGTGLTVAVKTLNPDGLQGHKEWLAEINYLGNLLHPNLVKLVGYCIEDDQRLLVYEFMPRGSLENHLFRRSLPLPWSIRMKIALGAAKGLSFLHEEALKPVIYRDFKTSNILLDGEYNAKLSDFGLAKDAPDEGKTHVSTRVMGTYGYAAPEYVMTGHLTSKSDVYSFGVVLLEMLTGRRSMDKNRPNGEHNLVEWARPHLLDKRRFYRLLDPRLEGHFSVKGAQKVTQLAAQCLSRDSKIRPKMSEVVEVLKPLPHLKDMASASYYFQTMQAERLKAGSGSGSGRGFGSRNGQPVFRTLSSPHGQAGSSPYRHQIPSPKPKGATT
B9: the binding entry was “no binding” in assay [2] and “binds” in assay [3].

The record behind these values is PMC9879999, “A phosphoinositide hub connects CLE peptide signaling and polar auxin efflux regulation” (Nature Communications, 2023).
